The other results are listed elsewhere or left out. Some results for these compounds are left out of this collection, so the calls shown say nothing about other tests.

This experiment is described as follows: autophagy modulators in MEF cells, primary screen, imaging, high-content, MEF GFP-LC3 (AID 463193).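 Further: cell loss after 18 h compound exposure.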 As to conditions: MEF GFP-LC3 puncta imaging, measured here: cell loss, nuclei count, at 10 µM.
For `O=C(NCC1(N2CCCCC2)CCCCC1)c1cc([N+](=O)[O-])ccc1Cl`, the toxicity was -15%.

`CC(C)N1C(=O)CC2(CCN(CCOC(=O)C(O)(c3ccccc3)c3ccccc3)CC2)C1=O`: the toxicity was -4.83%.

In the case of `CN(C)C1CCCC1OC(=O)C(O)(c1ccccc1)c1ccccc1` (centres undefined), the toxicity came out at 6.11%.

As to `Cc1ccccc1C(=O)NCC1(N2CCCCC2)CCCCC1`, the toxicity was -3.89%.

On to `CCN1CCCC(OC(=O)C2(O)c3ccccc3C=Cc3ccccc32)C1` (centres undefined), for which the toxicity turned out to be 0.326%.

As to `C=CCN1CCN(CCOC(=O)C(O)(c2ccccc2)c2ccccc2)CC1`, the toxicity is 7.15%.

`COc1cccc(C(=O)NCC2(N3CCCCC3)CCCCC2)c1`: the toxicity turned out to be 29.7%.

With `O=C(OC1CN2CCC1CC2)C(CO)(c1ccccc1)c1ccccc1` (centres undefined), the toxicity is -2.03%.

Consider `CN(C)c1cccc(C(=O)NCC2(N(C)C)CCCCC2)c1`, for which the toxicity is 6.95%.

The record behind these values is PubChem BioAssay AID463193 (University of Pittsburgh Molecular Library Screening Center, 2010).
